From PMC6173057 come the findings set out here.

Results are given in words; binding and its absence hold for the method and conditions named. Some entries that bind do so weakly or less than the wild type. Sequences can lack the tags named with a protein.

The experiment deals with T1, HA-NL1-His (recombinant mouse neuroligin-1 ectodomain) (mouse), Q99K10.
T1 chain: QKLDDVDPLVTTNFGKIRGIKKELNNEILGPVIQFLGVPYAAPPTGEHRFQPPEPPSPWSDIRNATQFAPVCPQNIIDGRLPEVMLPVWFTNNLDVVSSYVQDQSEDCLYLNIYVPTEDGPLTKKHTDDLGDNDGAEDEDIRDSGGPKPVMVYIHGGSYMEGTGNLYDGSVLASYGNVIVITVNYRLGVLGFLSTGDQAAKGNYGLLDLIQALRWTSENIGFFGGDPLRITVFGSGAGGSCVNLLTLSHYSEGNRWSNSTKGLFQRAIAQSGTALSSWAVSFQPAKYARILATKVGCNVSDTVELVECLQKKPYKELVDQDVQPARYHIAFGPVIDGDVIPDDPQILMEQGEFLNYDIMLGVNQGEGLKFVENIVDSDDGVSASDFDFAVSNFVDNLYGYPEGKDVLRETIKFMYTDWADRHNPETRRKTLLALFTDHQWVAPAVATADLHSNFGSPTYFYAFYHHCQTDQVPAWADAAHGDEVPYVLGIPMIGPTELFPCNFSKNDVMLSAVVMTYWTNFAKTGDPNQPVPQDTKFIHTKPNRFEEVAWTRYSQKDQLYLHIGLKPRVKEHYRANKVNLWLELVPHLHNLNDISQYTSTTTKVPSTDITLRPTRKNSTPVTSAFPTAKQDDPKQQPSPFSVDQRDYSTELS
As to the kind of experiment: cross-linking; purified recombinant HA-tagged NL1 ectodomains treated with 0.5 mM BS3 for the indicated times; dimerization; both purified. The settings on record: remark: other sources report otherwise.

B1: HA-NL1-His (recombinant mouse neuroligin-1 ectodomain), Q99K10 46-697 (domain or fragment)
chain: QKLDDVDPLVTTNFGKIRGIKKELNNEILGPVIQFLGVPYAAPPTGEHRFQPPEPPSPWSDIRNATQFAPVCPQNIIDGRLPEVMLPVWFTNNLDVVSSYVQDQSEDCLYLNIYVPTEDGPLTKKHTDDLGDNDGAEDEDIRDSGGPKPVMVYIHGGSYMEGTGNLYDGSVLASYGNVIVITVNYRLGVLGFLSTGDQAAKGNYGLLDLIQALRWTSENIGFFGGDPLRITVFGSGAGGSCVNLLTLSHYSEGNRWSNSTKGLFQRAIAQSGTALSSWAVSFQPAKYARILATKVGCNVSDTVELVECLQKKPYKELVDQDVQPARYHIAFGPVIDGDVIPDDPQILMEQGEFLNYDIMLGVNQGEGLKFVENIVDSDDGVSASDFDFAVSNFVDNLYGYPEGKDVLRETIKFMYTDWADRHNPETRRKTLLALFTDHQWVAPAVATADLHSNFGSPTYFYAFYHHCQTDQVPAWADAAHGDEVPYVLGIPMIGPTELFPCNFSKNDVMLSAVVMTYWTNFAKTGDPNQPVPQDTKFIHTKPNRFEEVAWTRYSQKDQLYLHIGLKPRVKEHYRANKVNLWLELVPHLHNLNDISQYTSTTTKVPSTDITLRPTRKNSTPVTSAFPTAKQDDPKQQPSPFSVDQRDYSTELS
As for B1, the binding result is reported as “binds”.
